PubChem BioAssay AID540275 (National Center for Advancing Translational Sciences (NCATS), 2011)
The campaign covered roughly 320,000 compounds. About 620 (0.19%) were called active. Inconclusive results, whose numbers are uncertain, are shown with a selection of clear calls. No stated cut-off is given here; in the data, active means activation above about 80%; inconclusive means between about 30% and that limit; inactive means weaker than that.

Sequences of proteins named here, by UniProt entry; tags and fusion partners are left off.
UniProt Q8NER1, whole entry, looked up: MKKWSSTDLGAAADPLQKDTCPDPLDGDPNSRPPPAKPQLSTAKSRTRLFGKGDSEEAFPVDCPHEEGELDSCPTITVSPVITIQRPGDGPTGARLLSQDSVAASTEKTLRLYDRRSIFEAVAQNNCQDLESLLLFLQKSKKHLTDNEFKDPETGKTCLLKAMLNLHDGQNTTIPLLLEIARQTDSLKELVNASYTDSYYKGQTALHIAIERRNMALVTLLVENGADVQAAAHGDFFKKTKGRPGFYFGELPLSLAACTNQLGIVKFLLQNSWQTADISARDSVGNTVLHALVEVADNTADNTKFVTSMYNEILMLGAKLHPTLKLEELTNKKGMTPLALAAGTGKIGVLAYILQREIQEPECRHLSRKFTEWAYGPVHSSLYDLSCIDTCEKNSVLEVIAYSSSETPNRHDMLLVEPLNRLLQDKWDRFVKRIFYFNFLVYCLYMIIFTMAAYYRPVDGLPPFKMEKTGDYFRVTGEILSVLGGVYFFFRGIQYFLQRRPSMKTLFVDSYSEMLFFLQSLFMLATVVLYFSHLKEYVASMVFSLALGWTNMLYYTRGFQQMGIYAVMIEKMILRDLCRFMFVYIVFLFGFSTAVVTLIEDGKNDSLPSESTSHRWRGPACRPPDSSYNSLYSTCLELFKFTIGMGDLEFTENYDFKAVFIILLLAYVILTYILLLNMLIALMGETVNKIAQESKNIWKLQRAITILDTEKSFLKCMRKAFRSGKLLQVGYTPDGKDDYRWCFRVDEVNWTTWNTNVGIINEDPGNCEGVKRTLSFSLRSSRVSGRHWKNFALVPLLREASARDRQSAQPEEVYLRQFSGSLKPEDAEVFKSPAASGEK

The compounds below were run against Transient receptor potential cation channel subfamily V member 1 (Homo sapiens) (UniProt Q8NER1) (assay: HTS Assay for Compounds that Act as Agonists of the Vanilloid Receptor 1). Conditions: TRPV1-expressing cells, Fluo-8 calcium influx, agonist mode; at 8.33 µM, hits give high values.
Method in brief: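 TRPV1-expressing cells were cultured overnight at 35.5C and loaded with Fluo-8 calcium dye for 40 to 90 min at room temperature. After a 10 s baseline, compound was added and calcium influx was read kinetically for 3 min (ex 480/em 520 nm).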
Further: 0% is about no effect.

| Structure (SMILES) | activation |
| --- | --- |
| CCN(CC)c1ccc2cc(C(N)=O)c(=N)oc2c1 | inconclusive: 35.2% |
| COc1ccc(NC(=O)CN(c2ccc(F)cc2)S(=O)(=O)c2ccccc2)c(OC)c1 | inactive: 4.57% |
| Cc1ccccc1OC(C)C(=O)Nc1ccc2c(c1)OCO2 (stereo not drawn) | inconclusive: 60.4% |
| CN(C)S(=O)(=O)c1ccc(NC(=O)c2cc3ccccc3o2)cc1 | inconclusive: 71.8% |
| Cc1ccc(SCC(=O)NCc2ccncc2)cc1 | inconclusive: 55.1% |
| CCCCc1c(C)nn(-c2nnc3c4ccccc4n(CC)c3n2)c1C | inconclusive: 31.3% |
| Cc1cc(C)cc(N(C(=O)Cc2cccs2)C(C(=O)NC2CCCCC2)c2ccccn2)c1 (stereo not drawn) | inconclusive: 54.6% |
| O=C1N/C(=N/NC(=O)c2cccc3ccccc23)S/C1=C\c1ccccc1OCc1ccccc1 | inactive: 0.91% |
| COc1ccc(C)cc1Nc1nc(C)nc2c1oc1ccccc12 | inconclusive: 44.2% |
| Fc1ccc(NC(=S)NCc2ccccc2Cl)cc1 | inconclusive: 55.6% |
| CCOC(=O)c1ccc(NC(=O)c2nn(C)cc2Br)cc1 | inconclusive: 68.2% |
| Cc1cccc(N(CC(=O)Nc2ccccc2-c2ccccc2)S(=O)(=O)c2ccccc2)c1C | inconclusive: 41.9% |
| O=[N+]([O-])c1ccc(NC(=S)N2CCN(S(=O)(=O)c3ccccc3)CC2)cc1 | inconclusive: 54.2% |
| CC(=O)Oc1ccc(C(=O)Nc2ccc(S(=O)(=O)N3CCOCC3)cc2)cc1 | inconclusive: 57.5% |
| CCn1c2ccccc2c2cc(NC(=O)C(C)C)ccc21 | inconclusive: 49% |
| Cc1ccc(N/C=C/C(=O)c2ccccc2)cc1C | inconclusive: 33.4% |
| CC(C)CC(=O)NC(=S)Nc1ccc(CN2CCOCC2)cc1 | inactive: -5.26% |
| COc1cccc(CNc2ccc([N+](=O)[O-])cc2C)c1 | inactive: 22.8% |
| Clc1ccc2c(N/N=C/c3cccc(Br)c3)ccnc2c1 | inconclusive: 49.1% |
| CC(=O)Nc1ccccc1OCC(=O)c1cc(C)n(Cc2cccs2)c1C | inactive: 1.49% |
| CCC1Nc2ncnc(N3CCCCC3)c2N(Cc2ccc(Br)cc2)C1=O (stereo not drawn) | inconclusive: 78.9% |
| COc1cc(Cl)c(C)cc1NC(=O)c1ccccc1NC(=O)CN1CCOCC1 | inconclusive: 32.7% |
| O=C(Nc1cccnc1)c1ccc(CN2CCc3ccccc3C2)cc1 | inconclusive: 66% |
| CCCCc1ccc(NC(=S)N2CCN(c3ccccn3)CC2)cc1 | inactive: -4.33% |

| Structure (SMILES) | activation |
| --- | --- |
| Cc1c(Cl)cccc1N1CC(C)(C)C1=O | inactive: -3.45% |
| S=C(Nc1ccccc1)N1CCc2ccccc21 | inactive: -2.45% |
| CN1/C(=C/C(=S)NC(=O)C2CCC2)C(C)(C)c2ccccc21 | inconclusive: 45.4% |
| Cn1c(SCc2cccc3ccccc23)nnc1-c1ccco1 | inactive: 1.58% |
| NS(=O)(=O)c1ccc(NC(=O)/C=C/c2cccc(Cl)c2)cc1 | inconclusive: 74.4% |
| CCn1cc(/C=N/N=C2\CCC3C4CCc5cc(O)ccc5C4CC[C@]23C)c(C)n1 (stereo partly drawn) | inactive: -0.0188% |
| CCN(CC)c1ccc2cc(-c3nnc(-c4ccccc4)o3)c(=O)oc2c1 | active: 101% |
| N#Cc1nc(-c2ccccc2)oc1N1CCCCC1 | inconclusive: 52.8% |
| CC(C(=O)N1CCN(Cc2ccccc2)CC1)c1ccc([N+](=O)[O-])cc1 (stereo not drawn) | inconclusive: 53.2% |
| FC(F)(F)Sc1ccc(NC(=S)NCc2ccccc2)cc1 | inconclusive: 71.3% |
| CCc1sc(C(=O)N2CCN(c3ncccn3)CC2)cc1Br | inconclusive: 44% |
| O=[N+]([O-])C(/C=C(\Cl)[N+](=O)[O-])=C(N1CCCCC1)N1CCCCC1 | inactive: 17.4% |
| O=C(CCc1ccccc1)Nc1ccccc1C(=O)NCc1ccco1 | inactive: 5.95% |
| Cc1ccsc1C(=O)NCc1ccccc1Cl | inconclusive: 46.3% |
| BrC(=C\c1ccccc1)/C=N/N1CCN(c2ccccc2)CC1 | inconclusive: 30.2% |
| O=C(CSc1n[nH]c(-c2ccccn2)n1)Nc1ccc(Cl)cc1 | inactive: 4.44% |
| CCCN(CCC)c1ccc(/C=C/c2ccc3cc(OCC)ccc3n2)cc1 | inactive: 10.9% |
| CCC(C)(C)NC(=O)C(c1ccc(C)cc1)N(CC1CCCO1)C(=O)CNC(=O)c1cccs1 (stereo not drawn) | inconclusive: 36.6% |
| CC(=O)CCc1oc2c([N+](=O)[O-])cccc2c1-c1ccc(C)o1 | inconclusive: 37.9% |
| Cc1nc2ccccc2c(=O)n1NCc1cc(Br)cs1 | inconclusive: 49% |
| COc1cccc(S(=O)(=O)NCC(=O)Nc2ccc(C(C)(C)C)cc2)c1 | inconclusive: 58.5% |
| CCOC(=O)C(CC(=O)c1ccccc1)CC(=O)c1ccccc1 | inconclusive: 47.2% |
| Cc1cccc(S(=O)Cc2ccc(C(=O)N3CCN(C(=O)c4ccco4)CC3)o2)c1 (stereo not drawn) | inactive: 0.683% |
| CC(NC(=S)Nc1ccc(OC(F)F)c(Cl)c1)C(C)(C)C (stereo not drawn) | inconclusive: 49.6% |

| Structure (SMILES) | activation |
| --- | --- |
| Cc1nnc(SCC(=O)Nc2sc3c(c2C(N)=O)CCC(C)C3)[nH]c1=O (stereo not drawn) | inactive: -1.39% |
| COc1cc(Cl)ccc1OCc1cc(C(=O)N2C[C@]3(C)C[C@H]2CC(C)(C)C3)no1 | inactive: 29.1% |
| Oc1ccccc1CNCCCNCc1ccccc1O | inconclusive: 30.4% |
| CC1c2ccsc2CCN1S(=O)(=O)c1ccccc1 (stereo not drawn) | inconclusive: 32.8% |
| O=Cc1ccc(OCc2ccc3c(c2)OCO3)cc1 | inactive: 6.2% |
| Cc1ccc(-n2cccn2)c(CN2CCC(CO)(CCc3ccccc3)CC2)c1 | inactive: 6.22% |
| c1ccc(N(c2ccccc2)c2nc(N3CCCC3)nc(-n3ccnc3)n2)cc1 | inconclusive: 50.1% |
| CCn1c(/C=C/c2ccccc2)nc2ccccc21 | inconclusive: 50.1% |
| Cc1cc(OCC(=O)Nc2cc(C(C)(C)C)on2)ccc1[N+](=O)[O-] | inconclusive: 30.3% |
| Cc1ccc(C(=O)NC(c2ccccc2)C(Cl)Cl)cc1 (stereo not drawn) | inconclusive: 34.3% |
| CCOCCn1c(N2CCCC2)nc2c1c(=O)[nH]c(=O)n2C | inactive: -0.254% |
| O=C(CCN1CCN(Cc2ccccc2)CC1)NNC(=O)Nc1cccc(Cl)c1 | inconclusive: 34.5% |
| Cc1ccc(N2C(=O)C3C4C=CC(CC4)C3C2=O)cc1Cl (stereo not drawn) | inconclusive: 31.1% |
| CC(C)CC(=O)NC(=S)Nc1ccc(NC(=O)c2cccs2)cc1 | inactive: -5.5% |
| CCC(CC)COC(=O)C(C#N)c1nc2ccccc2nc1N1CCOCC1 (stereo not drawn) | inconclusive: 41.7% |
| CCOC(=O)c1c(-c2ccccc2Cl)cn2ccccc12 | inconclusive: 30.4% |
| CC(C)c1ccc(NC(=O)CCC(=O)NCc2ccco2)cc1 | inconclusive: 38.9% |
| O=C(N/N=C/c1ccc(Cl)cc1)c1n[nH]c2c1CCCC2 | inconclusive: 79.8% |
| COC(=O)c1cccc(NC(=O)CCc2ccccc2)c1 | inconclusive: 49.7% |
| COc1ccc(NC(=O)COc2ccccc2)cc1NC(=O)c1ccco1 | inactive: 3.58% |
| O=c1c2cnn(-c3ccc(F)cc3)c2ncn1Cc1ccc(F)cc1 | inconclusive: 66.1% |
| CC(C)CCNC(=O)C1CCN(Cc2cccc(OCc3ccccc3)c2)CC1 | active: 91.7% |
| Cc1cccc(NC(=O)c2ccc(N(C)C3CCCCC3)c([N+](=O)[O-])c2)n1 | inconclusive: 45.1% |
| CCOC(=O)/C(=N\Nc1cc(Cl)ccc1Cl)N1CCN(CC)CC1 | inconclusive: 32.7% |

3 successive compounds from above:

| Structure (SMILES) | activation |
| --- | --- |
| CCCCc1ccc(NC(=S)N2CCN(c3ccccn3)CC2)cc1 | inactive: -4.33% |
| Cc1c(Cl)cccc1N1CC(C)(C)C1=O | inactive: -3.45% |
| S=C(Nc1ccccc1)N1CCc2ccccc21 | inactive: -2.45% |

A second format for 2 compounds above.
Structure (SMILES),activation
CC(C(=O)N1CCN(Cc2ccccc2)CC1)c1ccc([N+](=O)[O-])cc1 (stereo not drawn),inconclusive: 53.2%
FC(F)(F)Sc1ccc(NC(=S)NCc2ccccc2)cc1,inconclusive: 71.3%

The listing continues:

| Structure (SMILES) | activation |
| --- | --- |
| Cc1cc(Cl)c2oc(C(=O)N3CCN(C(=O)c4ccco4)CC3)c(C)c2c1 | inconclusive: 35.9% |
| Cc1ccc(Cl)c2sc(N3CCN(C(=O)c4ccco4)CC3)nc12 | inconclusive: 70.5% |
| Cc1ccc(C)c(OCC(=O)Nc2ccc3c(c2)OCO3)c1C | inconclusive: 52.9% |
| Cc1ccc(NC(=O)c2ccc(CSc3nccc(C)n3)cc2)cc1 | inconclusive: 69.7% |
| CCN(CC)c1ccc(/C=N/NC(=O)c2ccc(Br)o2)cc1 | inconclusive: 53.5% |
| CCn1c(SCC(=O)Nc2nc(C)c(C)s2)nnc1-c1cccs1 | inactive: 1.17% |
| CCOC(=O)N1C(=O)[C@@](c2ccc(Cl)cc2)(C(C)C)N1C(=O)OCC | inactive: 27.8% |
| Cc1ccc(CC(=O)Nc2cccc([N+](=O)[O-])c2)cc1 | inconclusive: 35% |
| O=C(Nc1ccc(F)cc1)Nc1ccccc1F | inconclusive: 32.8% |
| Cc1ccc(-c2cc3nc(C)cc(C)n3n2)cc1 | inactive: -0.143% |
| Cc1cc(NCCN2CCOCC2)n2ncc(-c3ccccc3)c2n1 | inactive: 2.83% |
| Oc1ccccc1N=Nc1ccccc1O | inactive: -0.638% |
| O=C(CCC(=O)N(CC(=O)NC1CCCC1)c1ccccc1F)Nc1nccs1 | inactive: -0.647% |
| CC1CCC(NC(=O)CN(C)S(=O)(=O)c2ccc3c(c2)CCC(=O)N3)CC1 (stereo not drawn) | inconclusive: 59.4% |
| COCCn1cnc2c1c(=O)n(Cc1ccc(C#N)cc1)c(=O)n2Cc1ccccc1 | inconclusive: 45.5% |
| CCc1ccccc1NC(=O)C1CCCN(c2nn3c(=O)cc(C)nc3s2)C1 (stereo not drawn) | inactive: -0.519% |
| CN(C(=O)CC1C(=O)NCCN1CC(c1ccccc1)c1ccccc1)C(C1CC1)C1CC1 (stereo not drawn) | inconclusive: 34.9% |
| CC(C)(C)C1CCC(C(=O)Nc2nccs2)CC1 (stereo not drawn) | inactive: 29.5% |
| N#CCCN(Cc1ccccc1)C(=S)Nc1ccccc1 | inactive: -0.0153% |
| CC1CCc2c(sc(/N=C/N(C)C)c2C#N)C1 (stereo not drawn) | inconclusive: 35.3% |
| O=C(Nc1ccc(Cc2ccncc2)cc1)c1cccc([N+](=O)[O-])c1 | inconclusive: 33.7% |
